According to the supplement of paper PMC8866396:
Counter-ions that a name gives are not always drawn. ± gives the standard deviation of the averaged measurements. The list shows a part of the results. This data set is noisy: repeats of one test often differ as much as different tests do.

Assays:
IL-6-GFP PC-9GR = test: IL-6-GFP fluorescence relative to DMSO control (fraction of control); higher = more IL-6-GFP expression; settings: compound concentration: 10 uM; treatment time: 48 h
Protocol: (§1)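 IL-6-GFP-overexpressing PC-9 and PC-9GR EGFR-mutant lung cancer cells (3000 cells/well, 96-well) were treated for 48 h with each compound of the Selleck L2000 library at 10 uM. IL-6-GFP fluorescence was read on a high-content screening system, and viability by CCK-8 absorbance on a parallel plate set. Each value was normalised as compound well / DMSO control well; two independent replicates.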

IL-6-GFP PC-9 = test: as above; settings: compound concentration: 10 uM; treatment time: 48 h
Protocol: as §1

SMILES | IL-6-GFP fluorescence (IL-6-GFP PC-9GR) | IL-6-GFP fluorescence (IL-6-GFP PC-9)
COc1ccc2cc1Oc1ccc(cc1)CC1c3c(cc4c(c3Oc3cc5c(cc3OC)CCN(C)C5C2)OCO4)CCN1C (stereo not drawn) [Cepharanthine] | 0.656 ± 0.21 | 0.87 ± 0.051
CC(=O)OC[C@H]1O[C@@H]([S-])[C@H](OC(C)=O)[C@@H](OC(C)=O)[C@@H]1OC(C)=O.CCP(CC)CC.[Au+] [Auranofin] | 0.509 ± 0.3 | 0.898 ± 0.25
CC1CC2C3CCC4=CC(=O)C=CC4(C)C3C(=O)CC2(C)C1(O)C(=O)CO (stereo not drawn) [Meprednisone] | 0.72 ± 0.098 | 0.88 ± 0.14
Cc1cnc(C(=O)NC2CCCCC/C=C\C3CC3(C(=O)NS(=O)(=O)C3CC3)NC(=O)C3CC(Oc4nc5ccccc5c5ccccc45)CN3C2=O)cn1 (stereo not drawn) [Paritaprevir (ABT-450)] | 0.845 ± 0.092 | 0.815 ± 0.092
CC1=C(CC(=O)O)c2cc(F)ccc2/C1=C\c1ccc(S(C)=O)cc1 (stereo not drawn) [Sulindac] | 0.771 ± 0.24 | 1.05 ± 0.46
Cc1nc(Nc2ncc(C(=O)Nc3c(C)cccc3Cl)s2)cc(N2CCN(CCO)CC2)n1.Cl [Dasatinib hydrochloride] | 1.38 ± 0.15 | 1.04 ± 0.11
Cc1ccc(C(=O)c2ccc(CC(=O)O)n2C)cc1 [Tolmetin] | 0.879 ± 0.017 | 0.942 ± 0.12
COc1cccc2c1C(=O)c1c(O)c3c(c(O)c1C2=O)CC(O)(C(=O)CO)CC3OC1CC(N)C(O)C(C)O1.Cl (stereo not drawn) [Doxorubicin (Adriamycin) HCl] | 0.813 ± 0.022 | 0.681 ± 0.074
Cc1nc(Nc2ncc(C(=O)Nc3c(C)cccc3Cl)s2)cc(N2CCN(CCO)CC2)n1.O [Dasatinib Monohydrate] | 1.1 ± 0.085 | 1.18 ± 0.11
CC1Oc2cc(cnc2N)-c2c(nn(C)c2C#N)CN(C)C(=O)c2ccc(F)cc21 (stereo not drawn) | 1.01 ± 0.052 | 0.917 ± 0.11
Nc1nc(Cl)nc2c1ncn2C1CC(O)C(CO)O1 (stereo not drawn) [Cladribine] | 1.09 ± 0.17 | 1.03 ± 0.091
CC(C)CC(NC(=O)CNC(=O)c1cc(Cl)ccc1Cl)B1OC(=O)CC(CC(=O)O)(C(=O)O)O1 (stereo not drawn) [Ixazomib Citrate (MLN9708)] | 0.871 ± 0.12 | 1.09 ± 0.077
O=NN(CCCl)C(=O)NC1CCCCC1 [Lomustine] | 0.683 ± 0.13 | 0.882 ± 0.2
CCCCOc1ccc(CC(=O)NO)cc1 [Bufexamac] | 0.93 ± 0.12 | 0.908 ± 0.32
CC(=O)Nc1ccc(CC(=O)O)cc1 [Actarit] | 0.836 ± 0.083 | 0.922 ± 0.2
C=C1CCC2C(C)(COC(=O)CCC(=O)O)C(OC(=O)CCC(=O)O)CCC2(C)C1/C=C/C1=CCOC1=O (stereo not drawn) [Dehydroandrographolide Succinate] | 0.847 ± 0.056 | 0.687 ± 0.34
O=C(/C=C/c1cccc(S(=O)(=O)Nc2ccccc2)c1)NO [Belinostat (PXD101)] | 1.2 ± 0.14 | 0.983 ± 0.062
CS(=O)(=O)O.N#CC1(c2ccc(NC(=O)c3cccnc3NCc3ccncc3)cc2)CCCC1 | 0.777 ± 0.27 | 0.97 ± 0.27
NC(=O)Cc1cccc(C(=O)c2ccccc2)c1N [Nepafenac] | 0.8176 ± 0.0067 | 0.737 ± 0.023
Cl.Nc1ccn(C2OC(CO)C(O)C2(F)F)c(=O)n1 (stereo not drawn) [Gemcitabine HCl] | 0.764 ± 0.091 | 0.741 ± 0.13
CCCS(=O)(=O)Nc1ccc(F)c(C(=O)c2c[nH]c3ncc(-c4ccc(Cl)cc4)cc23)c1F [Vemurafenib (PLX4032, RG7204)] | 0.931 ± 0.06 | 0.901 ± 0.049
Cc1cc(C(C)(C)C)cc(C)c1CC1=NCCN1 [Xylometazoline] | 0.879 ± 0.046 | 0.7745 ± 0.0012
COc1cc2ncnc(Nc3ccc(F)c(Cl)c3)c2cc1OCCCN1CCOCC1.Cl [Gefitinib hydrochloride] | 0.766 ± 0.051 | 0.961 ± 0.018
COc1cccc2c1C(=O)c1c(O)c3c(c(O)c1C2=O)CC(O)(C(C)=O)CC3OC1CC(N)C(O)C(C)O1.Cl (stereo not drawn) [Daunorubicin HCl] | 0.423 ± 0.15 | 0.446 ± 0.12

No new results follow: an excerpt of the list.
SMILES | IL-6-GFP fluorescence (IL-6-GFP PC-9GR) | IL-6-GFP fluorescence (IL-6-GFP PC-9)
CC1CC2C3CCC4=CC(=O)C=CC4(C)C3C(=O)CC2(C)C1(O)C(=O)CO (stereo not drawn) [Meprednisone] | 0.72 ± 0.098 | 0.88 ± 0.14
Cc1cnc(C(=O)NC2CCCCC/C=C\C3CC3(C(=O)NS(=O)(=O)C3CC3)NC(=O)C3CC(Oc4nc5ccccc5c5ccccc45)CN3C2=O)cn1 (stereo not drawn) [Paritaprevir (ABT-450)] | 0.845 ± 0.092 | 0.815 ± 0.092
